# Test results as given in PubChem BioAssay AID504444 (National Center for Advancing Translational Sciences (NCATS), 2011).
# “And” between values parts separate entries of the source, which are not always exact repeats. Equal values may be shown once. The whole screen tested about 360,000 compounds, of which about 7,500 (2.1%) were called active. Inconclusive results, whose numbers are uncertain, are shown with a selection of clear calls. Calls follow the shape of the dose curve; as a rule, active = well fitted inhibition curve with a large enough effect; inconclusive = small, poorly fitted or top-dose-only effect, or effect the other way; inactive = flat fitted curve, though single readings scatter. A potency beside an inconclusive call is a rough fit, not a confirmed value.
# Assay: Nrf2 qHTS screen for inhibitors; also: nearly all actives have a fitted effect of over 60% in size
# Details: A549 ARE-Fluc reporter, luciferase luminescence, 18-24 h; activity change, negative = inhibition: at 46 µM (top of the series)
# Procedure, shortened: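 In this cell-based qHTS, ARE-driven firefly luciferase in A549 cells reports Nrf2 activity; the luminescent signal after BugLite lysis is the measured value, with a prior CellTiter-Fluor read for cell health.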
# % is scaled to controls: 0 for no effect and ±100 for the full control effect; potency is read from the fitted curve at half-maximal effect.
SMILES,Potency,"activity change, negative = inhibition"
Cc1ccc(NC(=O)Cc2noc3ccccc23)cc1,"inconclusive: 1.46 µM [activator, full curve]",
O=C(Cc1ccc(F)cc1)N/N=C/c1ccncc1,"inconclusive: 4.61 µM [activator, full curve]",
COc1ccc(-c2oc3ncn4nc(COc5ccc(Cl)cc5)nc4c3c2-c2ccc(OC)cc2)cc1,,inactive: 1.08%
Cc1ccc(Cl)cc1NC(=S)N(CCN(C)C)Cc1cccs1,"inconclusive: 32.6 µM [falling, single point]",
CCN(CC)S(=O)(=O)c1ccc(N2CCCC2)c(C(=O)OCC(=O)/C(C#N)=C(\C)N)c1,"inconclusive: 29.1 µM [falling, single point]",
CCOc1ccc(NC(=O)CN(C)C(=O)Cn2cnc3c2c(=O)n(C)c(=O)n3C)cc1OCC,,inactive: 0.17%
Cc1noc(CN(C)c2ncnc3ccc(-c4ccc5c(c4)OCO5)cc23)n1,,inactive: 9.83%
CCn1ncc(Cl)c1C(=O)NC(=S)Nc1ccccc1Br,"inconclusive: 23.1 µM [activator, single point]",
Cc1cccc(CSc2nc3ccccc3c(=O)n2C)c1,"inconclusive: 18.4 µM [falling, single point]",
CCOc1ccc(OCC)c(-c2c(=O)n(OCc3ccc(C(C)(C)C)cc3)c3ccccc3[n+]2[O-])c1,"inconclusive: 10.3 µM [falling, partial curve]",
Cc1ccc(Nc2nc(-c3ccc(O)c(O)c3)cs2)nc1,"inconclusive: 18.4 µM [activator, partial curve]",
Cc1ccc(NC(=O)c2ccccc2NS(=O)(=O)c2ccc(F)cc2)cc1S(=O)(=O)N1CCCCC1,active: 23.1 µM,
O=C1C(=O)N(c2ccccn2)C(c2ccc(F)cc2)/C1=C(/O)c1ccc(Br)cc1 (stereo unspecified),active: 8.2 µM,
Cc1cccn2c(=O)c3cc(C#N)c(=NC(=O)c4cccs4)n(CCCOC(C)C)c3nc12,"inconclusive: 18.4 µM [falling, partial curve]",
COc1ccc(N(CC(=O)N2CCN(c3cccc(Cl)c3)CC2)S(=O)(=O)c2c(C)noc2C)cc1,"inconclusive: 20.6 µM [falling, single point] and inconclusive: 18.4 µM [falling, single point]",
COc1ccc(OC)c(-c2csc(NC(=O)Cc3cccs3)n2)c1,active: 16.4 µM,
CC1CCCCC1NC(=O)CSc1nncs1 (stereo unspecified),,inactive: -9.02%
CCOc1ccc(C(=O)N2CC(=O)Nc3ccc(F)cc3C2c2ccc(F)cc2)cc1 (stereo unspecified),,inactive: 0% [at 9.27 µM]
CN(C(=O)C1CCOC1)c1nnc(-c2ccccn2)s1 (stereo unspecified),"inconclusive: 2.24 µM [activator, full curve, poor fit]",
COc1ccc(Br)cc1C(=O)Nc1cccc(C)c1,"inconclusive: 4.11 µM [activator, partial curve, poor fit]",
CCCC(=O)NC(C)c1nc2ccccc2n1CC (stereo unspecified),"inconclusive: 6.51 µM [falling, partial curve, poor fit]",
CC(=O)C1=C(C)NC(SCC(N)=O)=C(C#N)C1c1sccc1C (stereo unspecified),"inconclusive: 0.82 µM [falling, full curve]",

SMILES,Potency,"activity change, negative = inhibition"
CCOc1ccc(CNc2nc3ccccc3n2C)cc1,"inconclusive: 5.17 µM [activator, partial curve]",
Cc1ccnc(Nc2nc(-c3ccc(F)cc3)cs2)c1,"inconclusive: 5.17 µM [activator, single point]",
CCOC(=O)c1c(-c2ccc(C)o2)csc1NC(=O)CN(C)CC(=O)Nc1ccc(C)cc1,active: 16.4 µM,
COc1ccc(CNC(=O)COc2cc(O)c3c(c2)OC(C)(C)CC3=O)c(OC)c1,"inconclusive: 16.4 µM [activator, single point]",
CC(OC(=O)c1cccc(S(=O)(=O)Nc2cccc(C(F)(F)F)c2)c1)C(=O)Nc1ccc2c(c1)OCCO2 (stereo unspecified),"inconclusive: 25.9 µM [falling, single point]",
C=CCN1C(c2ccc(Br)cc2)=CS/C1=C(/C#N)c1nnc(N2CCOCC2)n1-c1ccccc1,,inactive: -25.6%
COc1ccccc1NC(=O)CSCC(=O)N1c2ccccc2CCc2ccccc21,active: 18.4 µM,
CCC(C)n1c(OC)nc2c1c(=O)n(C)c(=O)n2C (stereo unspecified),"inconclusive: 29.1 µM [falling, single point]",
COc1ccccc1N1CCN(C(=O)c2cc3cc(F)ccc3[nH]2)CC1,"inconclusive: 0.13 µM [activator, full curve, poor fit]",
CCC(C(=O)NCCc1ccc(OC)c(OC)c1)n1nc(C)c2sc3ccccc3c2c1=O (stereo unspecified),"inconclusive: 5.17 µM [activator, partial curve, poor fit]",
C=CCn1cnc2c(c1=O)c1nc3ccccc3nc1n2/N=C/c1cc(OC)c(OC)c(OC)c1,"inconclusive: 4.11 µM [falling, full curve, poor fit]",
CC(=O)Nc1cccc(OCC(=O)Nc2sccc2C(N)=O)c1,"inconclusive: 5.8 µM [activator, partial curve]",
O=C(N/N=C/c1ccc(OCc2cnc(Cl)s2)cc1)c1ccncc1,"inconclusive: 8.2 µM [activator, partial curve, poor fit]",
CC(C)OCCCN1CN(S(=O)(=O)c2ccc(Cl)cc2)c2nc3ccccc3nc21,"inconclusive: 4.11 µM [falling, partial curve, poor fit]",
COc1ccc(/C=C2\CCc3c2nc2ccccc2c3C(=O)O)cc1OC,"inconclusive: 3.26 µM [activator, partial curve, poor fit]",
Nc1cc2c(cc1C(=O)c1ccc(Cl)cc1)OCCO2,,inactive: 8%
O=S(=O)(Nc1cccc2cccnc12)c1ccc(Br)cc1,active: 8.2 µM,
O=C(Nc1ccccc1N1CCCCC1)c1cc(S(=O)(=O)N2CCOCC2)ccc1Cl,"inconclusive: 29.1 µM [falling, single point]",
CCSC(=S)c1c(C)[nH]n(-c2ccccc2)c1=O,"inconclusive: 29.1 µM [falling, single point]",
CCC(C)[C@H](NC(=O)N1CCN(c2cccc(C(F)(F)F)c2)CC1)C(=O)OC (stereo partly specified),active: 18.4 µM,
CCCN(c1ccccc1F)S(=O)(=O)c1cc(-c2cc(C)no2)ccc1C,"inconclusive: 29.1 µM [falling, single point]",
O=C(Nc1ccccc1)c1ccccc1NC(=O)c1ccccc1C(=O)O,"inconclusive: 29.1 µM [activator, single point]",

SMILES,Potency,"activity change, negative = inhibition"
COc1ccc(Oc2nnc(C)c3ccccc23)cc1,"inconclusive: 13 µM [activator, partial curve]",
CN1CCN(c2ccc(NC(=O)c3ccc4ccccc4c3)cc2)CC1,"inconclusive: 1.16 µM [activator, full curve, poor fit]",
S=c1[nH]nc(-c2ccc3ccccc3n2)n1-c1cc(Cl)cc(Cl)c1,,inactive: -1.65%
CCOC(=O)c1ccc(NC(=O)c2cc(=O)c3ccc(C)c(C)c3o2)cc1,"inconclusive: 32.6 µM [falling, single point]",
c1ccc2c(c1)OCC(CNc1ncnc3sccc13)O2 (stereo unspecified),active: 1.46 µM,
COc1ccc2nc(NC(=O)Cc3cccs3)sc2c1,"inconclusive: 1.46 µM [activator, partial curve, poor fit]",
Cc1cc(C(C)(C)C)oc1C(=O)N(CC(=O)NC1CCCC1)Cc1ccccc1Cl,"inconclusive: 20.6 µM [falling, single point]",
CC(C)Cn1cnc2c(SCc3ccc(Cl)cc3)nc(N)nc21,"inconclusive: 16.4 µM [falling, single point]",
Cn1c(N2CCOCC2)nc(-c2ccccc2)c1-c1ccccc1,"inconclusive: 0.116 µM [activator, full curve, poor fit]",
Cc1cc(NC(=O)c2cc(-c3ccc(OC(C)C)cc3)nc3ccccc23)no1,"inconclusive: 1.03 µM [activator, full curve, poor fit]",
CCOc1ccc(Cn2nnc(C(=O)NCCc3ccc(Cl)cc3)c2N)cc1,"inconclusive: 32.6 µM [falling, single point]",
CN(C)c1ccc(-c2nc3ccc(Cl)cn3c2Nc2ccc3c(c2)OCCO3)cc1,"inconclusive: 29.1 µM [activator, single point]",
Cc1nc(SCc2ccccc2)c2ccsc2n1,,inactive: -23.5%
C[C@H]1CN([C@@H](C)CO)C(=O)c2cccc(NC(=O)c3nc4ccccc4s3)c2O[C@H]1CN(C)C(=O)Nc1ccc(F)cc1,"inconclusive: 29.1 µM [falling, single point]",
Cc1[nH]nc2nc(SCC(=O)NCCC3=CCCCC3)n(-c3ccc(Br)cc3)c(=N)c12,"inconclusive: 29.1 µM [falling, single point]",
CCCN(CCC)c1cc(C)nc2nc(-c3ccc(C(C)(C)C)cc3)nn12,,inactive: 8.74%
O=C(Cn1cc(/C=C\[N+](=O)[O-])c2ccccc21)Nc1ccccc1,,inactive: -32.7%
Cc1ccc(OCc2ccc(C(=O)NN)o2)c([N+](=O)[O-])c1,,inactive: 14.4%
COc1ccc(-c2c(C#N)c(SCC(=O)Nc3ccccc3)nc3c2CCCC3)cc1,"inconclusive: 8.2 µM [falling, partial curve, poor fit]",
COc1ccc(NC(=S)N2CCC(c3ccc(C)cc3)C2)cc1 (stereo unspecified),"inconclusive: 13 µM [activator, partial curve, poor fit]",
Cc1cc(C)cc(N2C(=O)CSC23C(=O)N(CC(N)=O)c2ccccc23)c1 (stereo unspecified),"inconclusive: 20.6 µM [activator, single point]",
O=c1cc(N2CCCCC2)c(-c2ccccc2)nn1Cc1ccc(Cl)cc1,"inconclusive: 29.1 µM [falling, single point]",

# Some of these compounds in order of formula weight, falling:
SMILES,Potency,"activity change, negative = inhibition"
CN(C)c1ccc(-c2nc3ccc(Cl)cn3c2Nc2ccc3c(c2)OCCO3)cc1,"inconclusive: 29.1 µM [activator, single point]",
CCOC(=O)c1ccc(NC(=O)c2cc(=O)c3ccc(C)c(C)c3o2)cc1,"inconclusive: 32.6 µM [falling, single point]",
COc1ccc2nc(NC(=O)Cc3cccs3)sc2c1,"inconclusive: 1.46 µM [activator, partial curve, poor fit]",
